In PubChem BioAssay AID1498 (National Center for Advancing Translational Sciences (NCATS), 2009):
The list shows a part of the results. These are further read-outs of the screen, such as a control signal, another cell line or another target. No call is given for them. Compounds called inactive in the main read-out are mostly missing here. Words in brackets tell the shape of the fitted curve; partial curves, single points and poor fits give uncertain potencies.

Experiment: Confirmation Concentration-Response Assay for Modulators of Lamin A Splicing
Conditions: HeLa lamin A splicing GFP/RFP minigene, Acumen, 48 h; for ratio activity: GFP/RFP ratio at top concentration; for ratio activity / RFP activity: at 46.1 µM; for RFP activity: RFP channel at top concentration
Method in brief: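 S3 HeLa cells stably expressing lamin A-EGFP splicing minigene and DsRed2, 600 cells/well in Opti-MEM with 2% FBS, compounds 48 h at 37C; laser-scanning cytometry (488 nm), GFP/RFP total intensity ratio analysed; 0.5% DMSO.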

[1] = measured here: GFP/RFP ratio splicing readout
[2] = measured here: RFP viability/nonspecific counter channel

SMILES | ratio activity | RFP activity | AC50 [1] | AC50 [2]
Cc1ccc(-c2cc(C(=O)N/N=C/c3c(C)nn(-c4ccccc4)c3C)n[nH]2)s1 | -19% | -50.7% | 2 µM [falling, full curve, poor fit] | 8.91 µM [falling, full curve, poor fit]
CC(C)CCNC(=O)C(c1ccncc1)N(Cc1cccs1)C(=O)Cn1nnc(-c2ccc(F)cc2)n1 (stereo not drawn) | -64.3% | -53.2% | 3.55 µM [falling, full curve] | 5.01 µM [falling, full curve, poor fit]
C#CCn1c(S(=O)(=O)Cc2ccc(C)cc2)nc(-c2ccccc2)c1-c1ccccc1 | -49.4% | 32.9% | 3.16 µM [falling, full curve] | 12.6 µM [rising, full curve, poor fit]
Cc1nc(Sc2nnnn2C)c2c3c(sc2n1)CCC3 | -62.7% | -40.6% | 0.891 µM [falling, full curve] | 6.31 µM [falling, full curve, poor fit]
Cc1noc(C)c1-c1ccc2ncnc(NCc3cccc(Cl)c3)c2c1 | -33.9% | -30.6% | 8.91 µM [falling, full curve, poor fit] | 31.6 µM [falling, single point]
Cc1ccc(CNc2ncnc3ccc(-c4c(C)noc4C)cc23)o1 | -33.9% | 38.3% | 2.82 µM [falling, full curve] | 10 µM [rising, full curve, poor fit]
Nc1ccc(C(=O)n2c3ccccc3c3ccccc32)cc1 | -23.6% | -33% | 0.631 µM [falling, full curve, poor fit] | 7.94 µM [falling, full curve, poor fit]
